Assay results: US9540702B2, “Stabilization of enzymes with stable coenzymes” (Roche Diabetes Care, Inc., priority 2009, dated 2017)
For at least one compound, name, drawing or mass did not settle the structure.

Chains of the proteins cited; added tags and fusions are not shown. Lines headed by an entry give the natural chain unless they say otherwise; changes in a name come on top.
UniProt P12310, whole entry E170K/A229V/A236S/Q252L: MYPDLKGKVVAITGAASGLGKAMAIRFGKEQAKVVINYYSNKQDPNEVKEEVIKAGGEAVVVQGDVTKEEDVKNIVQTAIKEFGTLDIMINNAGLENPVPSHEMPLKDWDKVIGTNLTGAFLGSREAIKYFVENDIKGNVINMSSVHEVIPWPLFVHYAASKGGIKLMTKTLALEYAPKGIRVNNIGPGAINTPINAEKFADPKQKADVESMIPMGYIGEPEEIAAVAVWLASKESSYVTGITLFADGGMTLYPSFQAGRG
UniProt P26297: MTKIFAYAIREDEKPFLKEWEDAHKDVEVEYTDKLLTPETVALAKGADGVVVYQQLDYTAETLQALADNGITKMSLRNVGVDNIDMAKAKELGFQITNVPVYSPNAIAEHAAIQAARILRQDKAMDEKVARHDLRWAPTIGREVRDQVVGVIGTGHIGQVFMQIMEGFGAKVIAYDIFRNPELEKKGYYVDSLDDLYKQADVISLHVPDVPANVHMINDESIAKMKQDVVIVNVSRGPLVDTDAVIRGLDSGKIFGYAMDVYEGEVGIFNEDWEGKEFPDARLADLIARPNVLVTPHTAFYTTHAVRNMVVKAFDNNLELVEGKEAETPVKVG

Key:
[1] = target: glucose dehydrogenase (wild-type) (Bacillus subtilis, UniProt P12310); test: DSC of coenzyme binding; conditions: 3.8 mM ligand; 0.1 M Tris buffer, pH 8.5
[2] = target: T1, Glucose dehydrogenase mutant2 (Bacillus subtilis, UniProt P12310, A229V/A236S/E170K/Q252L); test: Differential scanning calorimetry (DSC) of coenzyme binding; conditions: Tris buffer, pH 8.0; 3.8 mM ligand
[3] = target: T2, glucose dehydrogenase (GlucDH) (Bacillus subtilis, UniProt P12310); test: Stability of enzyme/coenzyme reagent layer towards light, fluorescence mode; conditions: GlucDH/NAD system; after irradiation at 360 nm; several minutes
D-lactate dehydrogenase = D-lactate dehydrogenase (Lactobacillus delbrueckii subsp. bulgaricus, UniProt P26297); test: DSC of coenzyme binding; conditions: 3.8 mM ligand; 0.1M Tris buffer, pH 7.5
malate dehydrogenase = conditions: 3.8 mM ligand; 0.5M carbonate buffer, pH 10.0
[4] = target: T1, Glucose dehydrogenase mutant2; test: Enzyme activity in test strips stored up to 18 weeks (Table 6); format: biochemical
Procedure: In order to evaluate the stabilization of glucose dehydrogenase and diaphorase by carbaNAD, a number of test strips were prepared in analogy to Example 5.
The test strips were stored over a period of 18 weeks at temperatures of 5° C. (KS, refrigerator), 25° C. (RT), 30° C. (GT), 35° C. (DT) and 45° C. (HT), and the enzyme activity in the test strips was determined at the start of storage (0 weeks), after 6 weeks, after 9 weeks, after 12 weeks and after 18 weeks. The results are shown in Table 6 (glucose dehydrogenase) and in Table 7 (diaphorase).

[5] = target: T2, glucose dehydrogenase (GlucDH); test: Reaction kinetics, function curve and dry blank value of GlucDH/coenzyme formulations after warm, humid storage; format: biochemical
Procedure: carbaNAD (FIG. 1A) or NAD were added to the glucose-specific GlucDH. These formulations were each applied to Pokalon foils (Lonza) and, after drying, stored under warm and humid conditions (32° C., 85% relative air humidity). Subsequently, the reaction kinetics and the function curve were determined at regular intervals. In parallel at each of the measurement times a cNAD/NAD analysis and a determination of the residual activity of the enzyme were carried out.
However, a significant difference in the kinetics curves can be seen after 5 weeks.
There is also a considerable difference in the blank values (dry blank value before application of a blood sample) as shown in FIG. 3.
The different stability of glucose dehydrogenase in the presence of NAD or cNAD is also evident from a comparison of FIGS. 4 and 5. […] In this connection it is clear that the function of the enzyme is only slightly changed at high glucose concentrations over the entire period and approximately corresponds after 24 weeks to the value obtained after 5 weeks.

NC(=O)c1ccc[n+]([C@@H]2O[C@H](COP(=O)([O-])OP(=O)(O)OC[C@H]3O[C@@H](n4cnc5c(N)ncnc54)[C@H](O)[C@@H]3O)[C@@H](O)[C@H]2O)c1 [NAD, nicotinamide adenine dinucleotide, reference compound]
TM [1]: 63.5 °C
ΔHcal [1]: 110 kcal/mol
melting point (TM) of enzyme in the presence of ligand [2]: 80.8 °C
fluorescence over the measurement period [3]: no reduction of fluorescence whatsoever
TM (D-lactate dehydrogenase): 60.4 °C
ΔHcal (D-lactate dehydrogenase): 19 kcal/mol
TM (malate dehydrogenase): 45.1 °C
ΔHcal (malate dehydrogenase): 380 kcal/mol
Enzyme activity, glucose dehydrogenase ([4]; 0 weeks (start of storage)): 14.6 U/cm^2
Enzyme activity, glucose dehydrogenase ([4]; DT (35° C.), 6 weeks): 12.9 U/cm^2
Enzyme activity, glucose dehydrogenase ([4]; DT (35° C.), 9 weeks): 10.9 U/cm^2
Enzyme activity, glucose dehydrogenase ([4]; DT (35° C.), 12 weeks): 9.4 U/cm^2
Enzyme activity, glucose dehydrogenase ([4]; DT (35° C.), 18 weeks): 8.5 U/cm^2
Enzyme activity, glucose dehydrogenase ([4]; GT (30° C.), 12 weeks): 9.7 U/cm^2
Enzyme activity, glucose dehydrogenase ([4]; GT (30° C.), 18 weeks): 9.1 U/cm^2
Enzyme activity, glucose dehydrogenase ([4]; HT (45° C.), 6 weeks): 7.8 U/cm^2
Enzyme activity, glucose dehydrogenase ([4]; HT (45° C.), 9 weeks): 6.2 U/cm^2
Enzyme activity, glucose dehydrogenase ([4]; KS (5° C.), 6 weeks): 16.5 U/cm^2
Enzyme activity, glucose dehydrogenase ([4]; KS (5° C.), 9 weeks): 16.6 U/cm^2
Enzyme activity, glucose dehydrogenase ([4]; KS (5° C.), 12 weeks): 14.4 U/cm^2
Enzyme activity, glucose dehydrogenase ([4]; KS (5° C.), 18 weeks): 13.8 U/cm^2
Enzyme activity, glucose dehydrogenase ([4]; RT (25° C.), 6 weeks): 15.8 U/cm^2
Enzyme activity, glucose dehydrogenase ([4]; RT (25° C.), 9 weeks): 14.4 U/cm^2
Enzyme activity, glucose dehydrogenase ([4]; RT (25° C.), 12 weeks): 12.9 U/cm^2
Enzyme activity, glucose dehydrogenase ([4]; RT (25° C.), 18 weeks): 12.2 U/cm^2
function curve of GlucDH ([5]; after 5 weeks at 32° C. and 85% air humidity): shows a fall-off at higher concentrations
kinetics curves of GlucDH ([5]; after 5 weeks at 32° C. and 85% relative air humidity): major decrease in the dynamic range
dry blank value before application of a blood sample ([5]; up to 5 weeks at 32° C. and 85% air humidity): increase in the dry blank value
